The list is a part of this screen's results and no random one: its compounds were picked by chemical class. Other doses and runs of a compound may be missing. T/C is the treated group as % of the vehicle group. Where survival is the endpoint, the PubChem record calls one and a half times the control and up active, and a quarter to a half above the control has no call in these data; cut-offs in other NCI protocols can differ. Some entries show no survivor count and are marked so; the dose need not have been tolerated. Schedules are NCI's codes, taken here to give the interval after Q, in days (D) or hours (H), and the number of doses after X.
System: BDF1 mice, Lymphoma 8 ip, survival T/C
Assay: NCI In Vivo Anticancer Drug Screen. Data for tumor model Lymphoma 8 (intraperitoneal) in B6D2F1 (BDF1) mice
Settings: T/C endpoint: survival time, mean or median, schedule: Q01DX010 (ip), vehicle: saline, higher T/C = longer survival
Experimental: The antitumor activity of compounds was measured in mice bearing transplantable tumors. Survival or tumor size were measured and the results are expressed as the measurement made in the treated group (T) divided by the measurement made in the vehicle treated control group (C). The tumor model used in this assay is Lymphoma 8 (intraperitoneal) in B6D2F1 (BDF1) mice

With `CN(CCCl)CCCl` the T/C (dose: 0.13 mg/kg/injection) was 140 % of control [survivor count not shown], the T/C (dose: 0.25 mg/kg/injection) was 155 % of control [survivor count not shown] and the T/C (dose: 0.5 mg/kg/injection) was 190 % of control [survivor count not shown].

— PubChem BioAssay AID242 (DTP/NCI, 2004)
